In publication doi:10.64898/2025.12.28.696746:
No constants are given. Whether binding was seen depends on the method and setting.

Target: T1, Bdf1 (S. pombe) (UniProt Q9Y7N0)
T1 sequence: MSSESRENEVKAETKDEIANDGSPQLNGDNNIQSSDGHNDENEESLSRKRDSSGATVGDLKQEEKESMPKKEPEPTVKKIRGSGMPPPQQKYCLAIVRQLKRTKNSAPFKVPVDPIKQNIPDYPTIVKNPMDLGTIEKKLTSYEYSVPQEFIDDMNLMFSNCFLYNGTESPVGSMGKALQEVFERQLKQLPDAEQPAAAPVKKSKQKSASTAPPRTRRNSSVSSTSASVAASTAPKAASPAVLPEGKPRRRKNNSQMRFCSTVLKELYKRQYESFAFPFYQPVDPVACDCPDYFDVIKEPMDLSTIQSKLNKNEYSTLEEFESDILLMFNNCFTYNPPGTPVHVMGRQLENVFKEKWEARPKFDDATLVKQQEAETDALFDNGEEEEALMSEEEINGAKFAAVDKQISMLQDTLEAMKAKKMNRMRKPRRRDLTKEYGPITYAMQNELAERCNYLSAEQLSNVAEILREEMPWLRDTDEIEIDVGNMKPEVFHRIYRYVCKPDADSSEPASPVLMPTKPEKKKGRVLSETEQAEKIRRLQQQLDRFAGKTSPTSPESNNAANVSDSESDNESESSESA
Assay: two-hybrid; Matchmaker Gold Yeast Two-Hybrid System (Clontech); bait and prey co-expressed, selected on SD/-Leu/-Trp, spotted on SD/-Leu/-Trp/-His/-Ade (HIS3 and ADE2 reporters), 30°C, 2-4 days

Substance	binding
C-terminal fragment of Tdk210 (Tdk210C, 104–234) (S. cryophilus) (domain or fragment)	no binding
C-terminal fragment of Tdk203 (Tdk203C, 214–342) (S. cryophilus) (domain or fragment)	no binding
